Measurements as given in PubChem BioAssay AID540276 (National Center for Advancing Translational Sciences (NCATS), 2011).
About 5,400 (1.8%) of roughly 300,000 compounds were called active. This list was built around the results that the source calls inconclusive (neither active nor inactive); the mix of calls is not that of the screen. Calls follow the shape of the full dose curve; tested in HEK293 cells. A potency beside an inconclusive call is a rough fit, not a confirmed value.
Potency is read from the fitted curve at half-maximal effect.

Experiment: qHTS for inhibitors of binding or entry into cells for Marburg Virus
Details: Marburg virus pseudotyped entry inhibition, cell reporter; series mostly up to 37.8 µM
In the case of CCOC(=O)OCC(=O)C1(O)CCC2C3CCC4=CC(=O)CCC4(C)C3C(O)CC21C (stereo not given), the Potency is reported as inconclusive: 1 µM [activator, full curve, poor fit]. In the case of O=C(c1coc(=O)c(Br)c1)N1CCCc2ccccc21, the Potency is reported as “inactive”. In the case of Cc1cc(NC(=O)CSc2nc(N)c(NC(=O)c3ccccc3)c(=O)[nH]2)no1, the Potency is reported as inconclusive: 10 µM [activator, partial curve, poor fit]. For Cc1nc(C)n(C)c(=O)c1-c1ccccc1, the Potency was inconclusive: 5.62 µM [activator, partial curve, poor fit]. With CCn1c(SCC(=O)Nc2nc3c(s2)CCCC3)nnc1-c1ccccc1 the Potency was “inactive”. In the case of O=C1CC(Nc2ccc(N3CCOCC3)cc2)C(=O)N1C1CCCCC1 (stereo not given), the Potency is reported as “inactive”. With COc1ccc(C(=O)c2ccc(Cl)cc2)c2ccccc12 the Potency was inconclusive: 22.4 µM [inhibitor, single point]. For CCOc1cc(C#N)c(NC(=O)c2cccnc2)cc1OCC, the Potency was inconclusive: 1.26 µM [inhibitor, partial curve]. With Cc1ccc(-c2nc3c(c(=O)[nH]c(=O)n3Cc3ccccc3)n2Cc2ccccc2)o1 the Potency was inconclusive: 22.4 µM [inhibitor, single point]. For CCOc1ccccc1-n1c(SCC(=O)Nc2ccc(CC)cc2)nc2n[nH]c(C)c2c1=N, the Potency was inconclusive: 22.4 µM [inhibitor, single point]. For O=C(NCCS(=O)(=O)NCc1cccnc1)c1ccccc1, the Potency was inconclusive: 8.91 µM [activator, partial curve, poor fit]. In the case of Cc1cccc(N2CCN(C(=O)c3cc4n(n3)C(C(F)(F)F)CC(c3ccco3)N4)CC2)c1C (stereo not given), the Potency is reported as inconclusive: 35.5 µM [inhibitor, single point]. With COc1ccccc1-c1nnc(SCC(N)=O)o1 the Potency was inconclusive: 15.8 µM [activator, partial curve, poor fit]. In the case of CC(=O)Nc1ccc(S(=O)(=O)N2CCC(NC(=O)C(Cc3ccc(C)cc3)NC(C)=O)CC2)cc1 (stereo not given), the Potency is reported as inconclusive: 10 µM [activator, partial curve, poor fit]. With Cc1ccc(C2N(C)c3ccccc3-c3nc4ccccc4n32)o1 (stereo not given) the Potency was inconclusive: 2.31 µM [inhibitor, single point]. With CSc1ccc(S(=O)(=O)NCc2ccccc2C)cc1 the Potency was inconclusive: 0.562 µM [inhibitor, full curve, poor fit]. With Cc1cc(C)c(OCC(=O)Nc2nc(-c3ccccn3)cs2)c(C)c1 the Potency was inconclusive: 11.2 µM [inhibitor, partial curve, poor fit]. In the case of O=C(CSc1cccc2cccnc12)N/N=C/c1cccnc1, the Potency is reported as inconclusive: 12.6 µM [inhibitor, partial curve, poor fit]. In the case of COc1ccccc1OCCn1c(C(C)Oc2ccccc2)nc2ccccc21 (stereo not given), the Potency is reported as inconclusive: 35.5 µM [inhibitor, single point]. For Cc1cc(C)cc(C(=O)Nc2c(C(=O)Nc3ccccc3F)oc3ccccc23)c1, the Potency was “inactive”. With Cc1cc(C)nc(N(C#N)C(C)C(=O)N(C)C)n1 (stereo not given) the Potency was inconclusive: 0.562 µM [inhibitor, full curve, poor fit]. In the case of Cc1cc(C(=O)OCC(=O)c2cccc([N+](=O)[O-])c2)c2ccccc2n1, the Potency is reported as “inactive”. With N#C/C(=C\c1ccc(N2CCCCC2)c([N+](=O)[O-])c1)c1nn(-c2ccccc2)c(N)c1C#N the Potency was inconclusive: 0.282 µM [activator, full curve, poor fit]. In the case of O=C(Nc1cccc(-c2nc3ncccc3o2)c1)c1cc2ccccc2o1, the Potency is reported as inconclusive: 31.6 µM [inhibitor, single point]. With CN1/C(=C/C2CC(=O)N(c3ccc([N+](=O)[O-])cc3)C2=O)C(C)(C)c2ccccc21 (stereo not given) the Potency was “inactive”. With COC(=O)Nc1ccc(S(=O)(=O)N(CCO)CC(F)(F)C(F)F)cc1 the Potency was inconclusive: 35.5 µM [activator, single point]. For COc1ccc(NC(=O)c2cccc(S(=O)(=O)Nc3ccc(Br)cc3)c2)cn1, the Potency was inconclusive: 8.91 µM [inhibitor, single point]. For CCCCC(O)(c1ccc(OC)cc1)C(CN1CCOCC1)c1ccccc1 (stereo not given), the Potency was inconclusive: 11.2 µM [inhibitor, partial curve, poor fit]. With CCOc1ccc(CC(=O)Nc2ccc(NC(=O)c3ccco3)cc2)cc1OCC the Potency was inconclusive: 1 µM [inhibitor, full curve, poor fit]. With CCN1C(=O)CC(Sc2ccccc2N)C1=O (stereo not given) the Potency was inconclusive: 6.31 µM [activator, full curve]. For CCC(=O)N/N=C(\C)CC(=O)Nc1cc(Cl)ccc1C, the Potency was inconclusive: 1.58 µM [inhibitor, partial curve, poor fit]. For COc1ccc(CNC(=O)Nc2ccc(OC)cc2)cc1, the Potency was inconclusive: 2.31 µM [inhibitor, partial curve, poor fit]. In the case of CCOC(=O)c1c(CN2CCCCC2)oc2ccc(OC)cc12, the Potency is reported as inconclusive: 29.1 µM [inhibitor, single point]. With Cc1cccc(NC(=O)NCC2CCN(c3ccc(S(=O)(=O)N4CCOCC4)cc3)CC2)c1 the Potency was “inactive”. For COc1cccc(-n2nc(C(=O)Nc3ccc4c(c3)OCO4)c3ccccc3c2=O)c1, the Potency was inconclusive: 14.1 µM [inhibitor, single point]. In the case of COCCn1c(-c2ccc(OC)cc2)cnc1SCC(=O)Nc1cccc2ccccc12, the Potency is reported as “inactive”. For O=C(N/N=C/c1ccncc1)c1cccc(NC(=O)c2ccccc2Cl)c1, the Potency was “inactive”. For Cc1cc(NC(=O)C2CC=CCC2C(=O)O)no1 (stereo not given), the Potency was inconclusive: 7.3 µM [inhibitor, partial curve, poor fit]. In the case of COc1ccc(C(=O)NNC(=O)CCC(=O)NNC(=O)c2ccc(OC)cc2)cc1, the Potency is reported as inconclusive: 35.5 µM [activator, single point]. With Cc1ccc(S(=O)(=O)c2c(C)nn(C(C)(C)C)c2OC(=O)CC(C)C)cc1 the Potency was inconclusive: 11.2 µM [inhibitor, partial curve, poor fit]. For CC(C)c1ccc(/C=N/NC(=O)CN(c2cccc(Cl)c2Cl)S(C)(=O)=O)cc1, the Potency was inconclusive: 35.5 µM [inhibitor, single point]. For COCCNc1nnc(SCC(=O)NC(=O)c2ccccc2OC)s1, the Potency was “inactive”. In the case of CN(Cc1ccccc1)S(=O)(=O)c1ccc(Cl)c(C(=O)NCc2cccnc2)c1, the Potency is reported as “inactive”. In the case of CCCn1c(=N)n(CC(O)COc2ccc(C)cc2)c2ccccc21 (stereo not given), the Potency is reported as inconclusive: 20 µM [inhibitor, partial curve, poor fit]. For S=C1NCN(Cc2ccccc2)CN1C1CCCCC1, the Potency was inconclusive: 28.2 µM [inhibitor, single point]. For CCN1CCC[C@@H]1Cn1cnc2c([nH]c3ccc(C)cc32)c1=O, the Potency was inconclusive: 0.794 µM [inhibitor, single point]. For COc1ccc(NC(=O)Nc2ccc3c(c2)CCC3)cc1, the Potency was inconclusive: 5.62 µM [activator, single point]. For Cc1sc2nc(SCC(=O)N3CCOCC3)[nH]c(=O)c2c1-c1ccccc1, the Potency was inconclusive: 3.98 µM [activator, full curve]. In the case of CC(C)CC(NP(=O)(O)O[C@@H]1O[C@@H](C)[C@H](O)[C@@H](O)[C@H]1O)C(=O)NC(Cc1c[nH]c2ccccc12)C(=O)O (stereo not given in full), the Potency is reported as inconclusive: 0.316 µM [inhibitor, full curve, poor fit]. In the case of CCCCc1ccc(NC(=O)COCC)cc1, the Potency is reported as inconclusive: 0.891 µM [activator, full curve, poor fit]. In the case of O=C(NCc1cccnc1)Nc1ccc(F)cc1F, the Potency is reported as “inactive”. In the case of Cc1nc2ccccc2c(=O)n1NC(=O)COc1ccccc1, the Potency is reported as “inactive”. For Cc1nn(-c2ccccc2)c(N)c1C1(O)C(=O)N(C)c2ccccc21 (stereo not given), the Potency was inconclusive: 7.31 µM [activator, single point]. For O=C1NC(=O)C(CC(=O)N(Cc2ccco2)C2(C(=O)NC3CCCCC3)CCCCC2)N1 (stereo not given), the Potency was inconclusive: 35.5 µM [inhibitor, single point]. In the case of CCn1nc(NC(=O)c2ccccc2)c2cc3cccc(C)c3nc21, the Potency is reported as inconclusive: 35.5 µM [inhibitor, single point]. With O=C(NCc1ccco1)c1csc2c1CCCCC2 the Potency was “inactive”. With CC(C)(C)OC(=O)N1CCC(C(=O)N2CCC[C@H]2C(=O)O)CC1 the Potency was inconclusive: 0.184 µM [inhibitor, partial curve, poor fit]. For COc1ccc(CN2CCCC(C(=O)c3ccc(SC)cc3)C2)cc1Cn1cccn1 (stereo not given), the Potency was inconclusive: 20 µM [inhibitor, single point]. With CC(C)CNC(=O)CN1C(=O)NC2(CCCc3ccccc32)C1=O (stereo not given) the Potency was “inactive”. With Cc1ccc(C(=O)Nc2ccc(Oc3cccc(C(F)(F)F)c3)nc2)cc1 the Potency was inconclusive: 6.31 µM [inhibitor, single point]. In the case of CCc1nc(C)cc2c1sc1ccccc12, the Potency is reported as “inactive”. With Cn1cc(CN2CCC(n3nccc3NC(=O)c3ccccc3Cl)CC2)cn1 the Potency was “inactive”. In the case of O=C(Cc1csc(Nc2nc(=S)[nH]c3ccccc23)n1)N1CCN(c2cccc(Cl)c2)CC1, the Potency is reported as inconclusive: 1.78 µM [inhibitor, full curve, poor fit]. With C=CCN1C(=O)S/C(=C\c2ccc(N3CCOCC3)cc2C)C1=O the Potency was inconclusive: 0.184 µM [activator, full curve, poor fit]. With CCOc1ccc(NC(=O)CC2C(=O)N(c3ccccc3)C(=O)N2Cc2ccco2)cc1 (stereo not given) the Potency was inconclusive: 1.12 µM [activator, partial curve, poor fit].
